The values that follow come from patent publication US5008419A, “Novel platinum complex” (SS Pharmaceutical Co., Ltd., priority 1988, dated 1991).

The subject of this series is L1210 leukemia cells. Nature of the series: Antitumor activity against L1210 leukemia in CDF1 mice (increase life span, survived ratio). It is filed as in vivo, CDF1 male mice. As to conditions: from LD50 and ILS50. As to the method: CDF1 male mice (age: 6 weeks) consisting of 6 per each group were used to the test. 1×10^5 L1210 leukemia cells were intraperitoneally inoculated into each mouse. Test compounds dissolved in a solution of 0.5% CMC-Na in physiological saline were intraperitoneally administered to mice once a day for 5 consecutive days from the next day of the inoculation. A 0.5% CMC-Na solution in physiological saline was administered to the control group. […] All of these compounds are known compounds and Comparative Compounds a-c were disclosed in U.S. Pat. No. 4,169,846.
Observation was continued for consecutive 30 days after the administration. Increase life span (ILS) was determined according to the following equation: […]
wherein T is the mean survival days of the treated groups, and C is the mean survival days of the control groups.
Therapeutic index of compounds of this invention was determined according to the following equation. [formula]
Turning to `N.N.O=C([O-])C1(C(=O)[O-])CCC1.[Pt+2]` [Carboplatin], the Therapeutic index is 6.4. On to “(trans-dl-1,2-diaminocyclohexane) diethylmalonatoplatinum (II) [Compound No. 2]”, for which the Therapeutic index was 51.9. Take “(trans-dl-1,2-diaminocyclohexane) dimethylmalonatoplatinum (II) [Compound No. 1]”: the Therapeutic index is listed as 41.2. With “(trans-dl-1,2-diaminocyclohexane)-malonatoplatinum (II) [Comparative Compound a]” the figure was 34.5.
